Primary screen of a compound library

From ChEMBL document CHEMBL3988442, “University of Dundee, Small-Polar-MMV Screening Library” (2021).

A: 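Phenotypic screen: M. tuberculosis growth, cholesterol and DPPC medium, 4 days; the read-out is not stated. Tested at 50 µM. Direction is inferred from retests: higher values go with more growth inhibition. About 69,000 compounds were tested under these conditions; 0.54% (about 370) showed 50% or more at least once.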
B: 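Growth of Mycobacterium tuberculosis over 3 days (7H9 medium with glucose and tyloxapol); the read-out is not stated. Compounds at 50 µM. Direction is inferred from retests: higher values go with more growth inhibition. Size under these conditions: about 69,000 compounds, about 760 of them at 50% or above in at least one test.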

Each number is a percent effect as filed. How 0% and 100% were set is not recorded. Most values in the screen are low, and negative values occur. Compounds were drawn at random from those tested, without regard to their results. Two or more numbers in one place are separate tests of the same structure; such repeats can differ widely.

Result for O=C1CCCCN1CC(=O)N1CCCC(c2ccccc2)C1 (stereo unspecified) was A: -15.56%; B: -19.58%. COCCN1Cc2ccnn2CC(COCc2cccnc2)C1 (stereo unspecified) read A: -2.784% and -9.094%; B: -4.668% and 2.562%. For CCOCC(O)CN1CCN(C(=O)C(C)(C)CC)CC1 (stereo unspecified) the result was A: -27.23%; B: -14.99%. For COCC1CC2(CCNCC2)CN1Cc1csc(C)n1.O=C(O)C(F)(F)F.O=C(O)C(F)(F)F (stereo unspecified) the result was A: 6.227%; B: -3.714% and -12.57%. With Cc1nc(N2CCN(C)CC2)ncc1C(=O)N1CC(C)(C)C(C)(O)C1 (stereo unspecified) the screen gave A: -8.913%; B: -40.5%. Result for Cc1csc(NC(=O)c2cnc(C3CCNCC3)cn2)n1.Cl was A: -4.161%; B: -1.75%. With CCc1cc(NCCNC(=O)c2cccnc2)n2nc(C)c(C)c2n1 the screen gave A: -13.68%; B: 7.397%.

Result for Cc1cc(-c2cnc(NCc3ccc4c(c3)OCO4)nc2C(C)C)on1 was A: 6.13%; B: 22.52%. For CC(=O)N1CCC2(CCN(C(=O)c3ccc(C)c(C(F)(F)F)c3)CC2)C1 the result was A: -39.78%; B: -28.01%. CN(CCN(C)S(=O)(=O)CC1CCOCC1)c1ccccc1 gave A: -7.725%; B: -6.036%. With [H][C@@]12CCN(S(C)(=O)=O)[C@@]1([H])CCN2C(=O)c1cnoc1C the screen gave A: 6.524%; B: 8.094%. Cn1cc(C2CCCN2C(=O)Cc2coc(-c3ccccc3)n2)cn1 (stereo unspecified) gave A: 8.338%; B: 7.747% and -41.39%. CCn1ncc(Cn2cc(Cl)c(N)n2)c1C gave A: -10.95%; B: -9.688%. With CCN1CCCC1CNCc1cc2cc(OC)c(OC)cc2[nH]c1=O (stereo unspecified) the screen gave A: 5.869%; B: 25.32%.

Result for Cc1ccccc1CSc1ncccc1C(=O)N(C)C was A: -5.012%; B: 1.26%. With c1coc(CN2CCc3ncnc(C4CCOC4)c3CC2)c1 (stereo unspecified) the screen gave A: 3.168%; B: 25.16% and -0.5499%. COc1cc(N2CCC3(CC2)OCC(=O)NC3C)ncn1 (stereo unspecified) read A: -4.006%; B: -35.47%. CCn1ncnc1C(C)NC(=O)C1CCN(C(C)C)CC1 (stereo unspecified) read A: -26.13%; B: -0.3419%. CC(C)CCn1cc(C(C(=O)O)N2CCC(c3ccncc3)CC2)cn1 (stereo unspecified) read A: -6.992%; B: -4.401% and -0.6692%. Cc1ccc(-c2ncc(C(=O)NCCNC(=O)C3CC3)s2)c(C)c1 read A: -4.014%; B: -6.267%. For CN(C)[C@@H]1CCN(c2ncc(F)cn2)[C@H]1Cc1cccnc1.O=C(O)C(F)(F)F.O=C(O)C(F)(F)F the result was A: 13.38%; B: 4.135% and -3.014%.

Result for C=C(C)CN(CC)S(=O)(=O)c1cccc(F)c1C#N was A: 22.09%; B: 25.57% and 12.96%. With [H][C@@]12CS(=O)(=O)C[C@]1([H])N(Cc1ccccc1F)CCN2C(=O)C1CCC1 the screen gave A: -18%; B: -13.5% and -4.236%. O=C(O)C(F)(F)F.O=C(O)C(F)(F)F.O=C(O)C(F)(F)F.c1cc(CN2CCOCC3(CCN(CC4CCOCC4)CC3)C2)ccn1 read A: 6.8% and -10.87%; B: -9.351%. With Cc1cccnc1CN(C)C(C(=O)O)c1ccc(-c2ccn[nH]2)cc1 (stereo unspecified) the screen gave A: 31.85%; B: 64.73%. CCc1ccc(CN(C)Cc2nc(COc3ccccc3)no2)nc1 gave A: 10.02%; B: 6.628% and -10.71%. CCCc1cc(=O)[nH]c2nnc(SCC(=O)NCc3ccc(C)cc3)n12 gave A: -25.09%; B: 8.322% and -0.8159%. O=C(O)c1ccc(=O)n(CC(c2ccc(F)cc2)N2CCCCCC2)c1 (stereo unspecified) read A: 6.261% and 0.9074%; B: -28.86%.

For CCc1nc(C2CCCN2CC(=O)Nc2nncs2)no1 (stereo unspecified) the result was A: 4.259%; B: 20.86%. Result for Cn1c(CN2CCOC[C@H]2c2nc(C(C)(C)C)co2)nc2ccccc21 was A: -4.756%; B: 5.594% and 1.153%. For CN(C(=O)NCc1ccsc1)C1CCN(c2ccccc2)C1=O (stereo unspecified) the result was A: 8.305%; B: 8.537%. [H][C@@]12CCN(C(=O)N(C)C)[C@]1([H])CC[C@@H](C(=O)NC)O2 gave A: -7%; B: -6.392% and -13.92%.

Some entries from above, unchanged:

SMILES	A	B
CCn1ncc(Cn2cc(Cl)c(N)n2)c1C	-10.95%	-9.688%
CCN1CCCC1CNCc1cc2cc(OC)c(OC)cc2[nH]c1=O (stereo unspecified)	5.869%	25.32%
CCOCC(O)CN1CCN(C(=O)C(C)(C)CC)CC1 (stereo unspecified)	-27.23%	-14.99%